Laboratory results published in paper PMC6894925.
These are yes or no findings as the source states them, for the method shown. In cells and extracts the contact can be indirect. Some binding calls cover weakened binding; strength is not graded here.

The chains behind the UniProt entries cited, without tags or fusion partners. Residues count along the entry.
UniProt P28824, residues 22-928: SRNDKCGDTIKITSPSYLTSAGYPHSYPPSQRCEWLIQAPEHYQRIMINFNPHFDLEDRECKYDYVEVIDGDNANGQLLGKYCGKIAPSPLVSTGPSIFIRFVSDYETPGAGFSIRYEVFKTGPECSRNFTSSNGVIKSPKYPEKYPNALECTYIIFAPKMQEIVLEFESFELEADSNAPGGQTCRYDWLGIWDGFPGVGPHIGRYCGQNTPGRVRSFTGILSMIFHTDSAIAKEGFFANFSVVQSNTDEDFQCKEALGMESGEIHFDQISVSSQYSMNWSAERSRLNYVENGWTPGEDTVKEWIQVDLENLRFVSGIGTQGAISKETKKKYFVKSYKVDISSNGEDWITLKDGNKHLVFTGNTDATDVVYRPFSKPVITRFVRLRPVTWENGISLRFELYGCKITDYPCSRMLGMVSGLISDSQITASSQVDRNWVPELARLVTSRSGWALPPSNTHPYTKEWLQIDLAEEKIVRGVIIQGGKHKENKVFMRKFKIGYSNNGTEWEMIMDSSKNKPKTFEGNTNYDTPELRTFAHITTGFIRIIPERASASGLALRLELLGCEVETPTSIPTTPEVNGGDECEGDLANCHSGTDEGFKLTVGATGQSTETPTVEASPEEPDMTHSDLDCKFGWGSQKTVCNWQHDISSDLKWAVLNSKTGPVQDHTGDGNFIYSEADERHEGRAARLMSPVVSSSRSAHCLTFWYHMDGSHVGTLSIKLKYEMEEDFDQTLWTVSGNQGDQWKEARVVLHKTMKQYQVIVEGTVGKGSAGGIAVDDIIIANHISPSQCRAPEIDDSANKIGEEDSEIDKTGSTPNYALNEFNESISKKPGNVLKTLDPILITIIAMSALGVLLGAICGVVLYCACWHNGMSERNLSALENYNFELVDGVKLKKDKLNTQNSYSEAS

Target: Neuropilin-1 (Nrp1), Xenopus laevis (Xenopus laevis (endogenous in embryonic brains and eyes and retinal cultures)) (UniProt P28824)
Assay: co-IP; IP of the endogenous receptor from Xenopus stage 40/41 brain and eye lysate with antibody-coupled Dynabeads (1.5 hr, 4 C; 20 mM Tris-HCl pH 7.4, 150 mM NaCl, 10 mM MgCl2, 10% glycerol, cycloheximide), Western blot; isotype IgG control; in some samples washes with 25 mM EDTA or RNase A/T1 before elution, which decreased the ribosomal proteins and partly Staufen1

binding: binds
B1: Staufen1, Xenopus laevis (protein, UniProt Q6GM35 1-708)
chain: MSQAPKSPAAPLPKIQILNKNQHSPLPQPLSIPSTASPLPSENAGRPLQNSALPSPSVTSSGPTAVSSNMANPKEKTPMCLVNELARFNKIQPVYKLLSEQGPAHSKVIPLGRWQDYSLLERVGEERPRQMFTVQLTLGDQYWEAEGTSIKKAQHAAAAKALEGTKYPKPTVRPVRDSITPTVELNALCMKLGRKPIYKPLDPYTGIRSAYNYNMRGGGYPPRYFYPFPVAPILYQVELSVGGQQFHGKGRTRQAAKHDAAARALKSLHHEPLPDKPALNGKAADEENLNKSEISQVFEIALKRNMSVNFEVTKETGPPHMKSFLTKVIVGEFLGEGEGKSKKISKKNAAIAVLEELRKLPPLPTVEKMRPKIKKKTKSIVKLPTSPEYGQGMNPISRLAQIQQAKKGKEPEYILITERGLPRRREFVMQVKVGNHAAEGSGTNKKVAKRNAAENMLEILGFKVPPPPPKPALKTEEKLPVKKPGDGRKVTFYEPGSGEDGANHNKDDEFRMPYHSHQQLPAGILPMVPEVAQAVGVNQGLHTKEFNRVAPNPAKATVTAMIARELLYAGISPTADTILKNNNAAGHVLRGPFTRPSEQLNYLSRVQGLEVEYKDFPKNNKNEFVSLINCSSQPPLISHGIGKDVESCHDMAALNILKLLSELDQQNPEMPRTGNGPMSVCVKPEMESDPLLKPANSNTLGQTLDSTA
